{"source": "PubChem BioAssay AID1224830 (NIAID, 2016)", "assay": "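Host factors that control LPS-induced TNF expression in human macrophages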 (primary screen)", "system": "human THP-1 monocytic leukaemia cells, TNF dual-luciferase reporter clone, PMA-differentiated to macrophage-like cells", "reagents": "siRNA pool against human genes, 50 nM", "timing": "LPS for 4 h, given about 3 days after siRNA transfection", "challenge": "bacterial LPS (TLR4 ligand), 10 ng/ml", "detection": "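Ratio of firefly to renilla light, scaled to the plate median and expressed as a robust z-score per replicate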", "direction": "TNF reporter robust z-score: higher = stronger TNF reporter response to LPS", "rule for the call": "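a well is active when its z-score exceeds 2.8 or falls below -1.5; control wells carry no call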", "note": "This is a random part of about 18,000 reagents tested. Over the whole deposit, about 2,900 (16%) were called active. 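Calls are made per well; low scores hint the gene aids the LPS response, high scores that it dampens it.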 Reagents against one gene are numbered here. Repeated entries: four replicate wells of each siRNA pool. Reagent sequences are not shown."}
{"target gene": "ATP6V0E2", "pool no.": 1, "TNF reporter robust z-score": -0.78, "outcome": "inactive"}
{"target gene": "ATP6V0E2", "pool no.": 1, "TNF reporter robust z-score": 0.28, "outcome": "inactive"}
{"target gene": "ATP6V0E2", "pool no.": 1, "TNF reporter robust z-score": -0.56, "outcome": "inactive"}
{"target gene": "ATP6V0E2", "pool no.": 1, "TNF reporter robust z-score": 0.59, "outcome": "inactive"}
{"target gene": "ANGPTL8", "pool no.": 1, "TNF reporter robust z-score": 0.12, "outcome": "inactive"}
{"target gene": "ANGPTL8", "pool no.": 1, "TNF reporter robust z-score": 0.03, "outcome": "inactive"}
{"target gene": "ANGPTL8", "pool no.": 1, "TNF reporter robust z-score": 0.37, "outcome": "inactive"}
{"target gene": "ANGPTL8", "pool no.": 1, "TNF reporter robust z-score": 1.42, "outcome": "inactive"}
{"target gene": "IGSF8", "pool no.": 1, "TNF reporter robust z-score": 3.03, "outcome": "active"}
{"target gene": "IGSF8", "pool no.": 1, "TNF reporter robust z-score": 0.12, "outcome": "inactive"}
{"target gene": "IGSF8", "pool no.": 1, "TNF reporter robust z-score": 1.38, "outcome": "inactive"}
{"target gene": "IGSF8", "pool no.": 1, "TNF reporter robust z-score": 3.11, "outcome": "active"}
{"target gene": "EFCC1", "pool no.": 1, "TNF reporter robust z-score": 0, "outcome": "inactive"}
{"target gene": "EFCC1", "pool no.": 1, "TNF reporter robust z-score": 1.42, "outcome": "inactive"}
{"target gene": "EFCC1", "pool no.": 1, "TNF reporter robust z-score": -0.2, "outcome": "inactive"}
{"target gene": "EFCC1", "pool no.": 1, "TNF reporter robust z-score": 1.31, "outcome": "inactive"}
{"target gene": "NR2C2", "pool no.": 1, "TNF reporter robust z-score": -0.01, "outcome": "inactive"}
{"target gene": "NR2C2", "pool no.": 1, "TNF reporter robust z-score": -0.05, "outcome": "inactive"}
{"target gene": "NR2C2", "pool no.": 1, "TNF reporter robust z-score": 0.4, "outcome": "inactive"}
{"target gene": "NR2C2", "pool no.": 1, "TNF reporter robust z-score": -0.21, "outcome": "inactive"}

In a second layout: 6 of the entries above.
| target gene | pool no. | TNF reporter robust z-score | outcome |
| --- | --- | --- | --- |
| EFCC1 | 1 | -0.2 | inactive |
| EFCC1 | 1 | 1.31 | inactive |
| NR2C2 | 1 | -0.01 | inactive |
| NR2C2 | 1 | -0.05 | inactive |
| NR2C2 | 1 | 0.4 | inactive |
| NR2C2 | 1 | -0.21 | inactive |

The listing continues.
{"target gene": "DNHD1", "pool no.": 1, "TNF reporter robust z-score": 1.39, "outcome": "inactive"}
{"target gene": "DNHD1", "pool no.": 1, "TNF reporter robust z-score": 1.92, "outcome": "inactive"}
{"target gene": "DNHD1", "pool no.": 1, "TNF reporter robust z-score": 1.8, "outcome": "inactive"}
{"target gene": "DNHD1", "pool no.": 1, "TNF reporter robust z-score": 1.23, "outcome": "inactive"}
{"target gene": "DNHD1", "pool no.": 2, "TNF reporter robust z-score": 1.02, "outcome": "inactive"}
{"target gene": "DNHD1", "pool no.": 2, "TNF reporter robust z-score": -0.55, "outcome": "inactive"}
{"target gene": "DNHD1", "pool no.": 2, "TNF reporter robust z-score": 1.22, "outcome": "inactive"}
{"target gene": "DNHD1", "pool no.": 2, "TNF reporter robust z-score": 0.13, "outcome": "inactive"}
{"target gene": "OR2A14", "pool no.": 1, "TNF reporter robust z-score": -0.27, "outcome": "inactive"}
{"target gene": "OR2A14", "pool no.": 1, "TNF reporter robust z-score": -0.03, "outcome": "inactive"}
{"target gene": "OR2A14", "pool no.": 1, "TNF reporter robust z-score": 0.05, "outcome": "inactive"}
{"target gene": "OR2A14", "pool no.": 1, "TNF reporter robust z-score": 0.12, "outcome": "inactive"}
{"target gene": "THTPA", "pool no.": 1, "TNF reporter robust z-score": -0.91, "outcome": "inactive"}
{"target gene": "THTPA", "pool no.": 1, "TNF reporter robust z-score": 0.01, "outcome": "inactive"}
{"target gene": "THTPA", "pool no.": 1, "TNF reporter robust z-score": -0.72, "outcome": "inactive"}
{"target gene": "THTPA", "pool no.": 1, "TNF reporter robust z-score": -0.95, "outcome": "inactive"}
{"target gene": "CDH19", "pool no.": 1, "TNF reporter robust z-score": -0.44, "outcome": "inactive"}
{"target gene": "CDH19", "pool no.": 1, "TNF reporter robust z-score": 0.45, "outcome": "inactive"}
{"target gene": "CDH19", "pool no.": 1, "TNF reporter robust z-score": -0.25, "outcome": "inactive"}
{"target gene": "PPAT", "pool no.": 1, "TNF reporter robust z-score": 1.24, "outcome": "inactive"}
{"target gene": "PPAT", "pool no.": 1, "TNF reporter robust z-score": 0.63, "outcome": "inactive"}
{"target gene": "PPAT", "pool no.": 1, "TNF reporter robust z-score": 0.67, "outcome": "inactive"}
{"target gene": "PPAT", "pool no.": 1, "TNF reporter robust z-score": 1.02, "outcome": "inactive"}
{"target gene": "CDY2A", "pool no.": 1, "TNF reporter robust z-score": -0.26, "outcome": "inactive"}
{"target gene": "CDY2A", "pool no.": 1, "TNF reporter robust z-score": 0.35, "outcome": "inactive"}
{"target gene": "CDY2A", "pool no.": 1, "TNF reporter robust z-score": 0.07, "outcome": "inactive"}
{"target gene": "CDY2A", "pool no.": 1, "TNF reporter robust z-score": 0.17, "outcome": "inactive"}
